Measured values: paper PMC4956616
No constants are given. Whether binding was seen depends on the method and setting. For some assays here: Binding seen in cells or lysates may run through a third protein. Some results given as binding are weak or reduced against the parent protein; the word gives no strength. For some assays here: Tags and fused reporters may be left off the sequences shown.

Tests used:
[1] = molecular target: T1, DCB domain of BIG1 used to capture endogenous Arl1 (Figure S1A) (human) (UniProt Q9Y6D6); assay: pull-down; DCB domain as bait captures endogenous Arl1 from mammalian cell lysates, GTP-dependent (Figure S1A); only the target purified
T1 sequence: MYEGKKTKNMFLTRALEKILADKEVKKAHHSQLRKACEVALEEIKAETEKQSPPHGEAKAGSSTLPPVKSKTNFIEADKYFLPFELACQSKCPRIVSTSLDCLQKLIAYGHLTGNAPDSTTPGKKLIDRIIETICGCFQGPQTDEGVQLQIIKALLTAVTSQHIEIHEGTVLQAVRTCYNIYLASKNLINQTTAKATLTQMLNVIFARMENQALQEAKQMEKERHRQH

[2] = molecular target: Arl1^Q71L-GTP (human Arl1 residues 15–181, Q71L) (human) (UniProt P40616); assay: crystal structure; Arl1^Q71L-GTP/Mg2+/DCB^Δ51–71, space group C2, one complex per asymmetric unit, 2.3 Å, molecular replacement; both purified

B1: endogenous Arl1 from mammalian cell lysates (protein, UniProt P40616 1-181)
chain: MGGFFSSIFSSLFGTREMRILILGLDGAGKTTILYRLQVGEVVTTIPTIGFNVETVTYKNLKFQVWDLGGQTSIRPYWRCYYSNTDAVIYVVDSCDRDRIGISKSELVAMLEEEELRKAILVVFANKQDMEQAMTSSEMANSLGLPALKDRKWQIFKTSATKGTGLDEAMEWLVETLKSRQ
Question: How did the binding [1] turn out when B1 was run?
Answer: binds

B2: His6-DCB^Δ51–71 (human BIG1 residues 1–228 with a deletion of residues 51–71 inclusive) (domain or fragment, UniProt Q9Y6D6)
chain: MYEGKKTKNMFLTRALEKILADKEVKKAHHSQLRKACEVALEEIKAETEKTNFIEADKYFLPFELACQSKCPRIVSTSLDCLQKLIAYGHLTGNAPDSTTPGKKLIDRIIETICGCFQGPQTDEGVQLQIIKALLTAVTSQHIEIHEGTVLQAVRTCYNIYLASKNLINQTTAKATLTQMLNVIFARMENQALQEAKQMEKERHRQH
Question: With B2 as the binder, how does the binding [2] read?
Answer: binds
